Source: publication doi:10.1101/2022.08.09.503299
Like-named read-outs stand apart in the source and are kept apart here. Results are given in words; binding and its absence hold for the method and conditions named. Binding seen in cells or lysates may run through a third protein. Here binding means that the protein was enriched with, or labelled near, the bait; the list need not be complete. For part of these data: Where a sequence is shown, tags or fusion partners need not be part of it. Values belong to the molecule of their own block, whether it stands above or below them.

Amino acid sequences for entries named in this document (tags omitted). Residues count along the entry.
UniProt Q99832: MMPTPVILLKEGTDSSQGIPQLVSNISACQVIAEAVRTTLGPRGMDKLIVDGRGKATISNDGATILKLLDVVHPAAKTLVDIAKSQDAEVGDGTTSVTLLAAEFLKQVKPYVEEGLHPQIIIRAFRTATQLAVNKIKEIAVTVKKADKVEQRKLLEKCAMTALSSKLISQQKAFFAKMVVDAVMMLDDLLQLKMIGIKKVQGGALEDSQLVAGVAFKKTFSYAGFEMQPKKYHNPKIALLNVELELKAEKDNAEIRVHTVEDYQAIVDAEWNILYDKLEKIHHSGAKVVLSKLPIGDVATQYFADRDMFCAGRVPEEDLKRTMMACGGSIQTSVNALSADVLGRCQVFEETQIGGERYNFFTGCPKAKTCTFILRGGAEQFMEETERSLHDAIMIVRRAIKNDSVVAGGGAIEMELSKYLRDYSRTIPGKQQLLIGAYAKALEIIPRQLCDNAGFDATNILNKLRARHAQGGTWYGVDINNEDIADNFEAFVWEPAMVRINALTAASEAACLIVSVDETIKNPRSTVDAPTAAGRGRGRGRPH
UniProt P01106: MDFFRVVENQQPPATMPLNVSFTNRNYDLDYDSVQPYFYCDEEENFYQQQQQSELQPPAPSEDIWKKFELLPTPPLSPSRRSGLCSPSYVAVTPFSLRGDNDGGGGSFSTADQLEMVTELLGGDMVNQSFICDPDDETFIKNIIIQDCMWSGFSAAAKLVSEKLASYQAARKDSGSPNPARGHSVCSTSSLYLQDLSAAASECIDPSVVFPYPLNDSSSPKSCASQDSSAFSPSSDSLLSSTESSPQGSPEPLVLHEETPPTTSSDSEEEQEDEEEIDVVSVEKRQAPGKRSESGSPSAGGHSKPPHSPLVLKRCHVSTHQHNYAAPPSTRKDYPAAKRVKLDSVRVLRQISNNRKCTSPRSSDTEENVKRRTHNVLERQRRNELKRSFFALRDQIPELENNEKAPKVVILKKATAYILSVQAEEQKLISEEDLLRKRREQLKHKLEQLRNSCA
UniProt P37802: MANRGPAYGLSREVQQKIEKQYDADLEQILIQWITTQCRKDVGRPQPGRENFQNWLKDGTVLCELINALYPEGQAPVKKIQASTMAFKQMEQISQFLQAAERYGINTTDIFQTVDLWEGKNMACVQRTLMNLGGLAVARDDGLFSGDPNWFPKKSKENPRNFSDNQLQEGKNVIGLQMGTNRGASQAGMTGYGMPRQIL
UniProt P48643: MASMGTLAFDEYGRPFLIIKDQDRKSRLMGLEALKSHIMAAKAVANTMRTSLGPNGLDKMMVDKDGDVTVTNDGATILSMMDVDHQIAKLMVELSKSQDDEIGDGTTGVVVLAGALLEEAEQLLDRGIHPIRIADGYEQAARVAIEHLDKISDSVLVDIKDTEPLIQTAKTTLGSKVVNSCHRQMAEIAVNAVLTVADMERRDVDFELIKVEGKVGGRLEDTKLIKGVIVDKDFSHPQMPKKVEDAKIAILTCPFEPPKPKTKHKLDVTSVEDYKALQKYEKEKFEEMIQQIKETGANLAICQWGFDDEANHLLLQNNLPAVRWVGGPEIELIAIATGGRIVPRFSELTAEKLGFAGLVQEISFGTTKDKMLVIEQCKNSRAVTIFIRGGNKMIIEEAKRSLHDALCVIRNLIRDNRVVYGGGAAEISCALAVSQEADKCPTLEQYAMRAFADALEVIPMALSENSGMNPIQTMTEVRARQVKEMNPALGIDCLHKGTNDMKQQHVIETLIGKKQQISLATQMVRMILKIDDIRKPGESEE
UniProt Q9BXM7, residues 78-581: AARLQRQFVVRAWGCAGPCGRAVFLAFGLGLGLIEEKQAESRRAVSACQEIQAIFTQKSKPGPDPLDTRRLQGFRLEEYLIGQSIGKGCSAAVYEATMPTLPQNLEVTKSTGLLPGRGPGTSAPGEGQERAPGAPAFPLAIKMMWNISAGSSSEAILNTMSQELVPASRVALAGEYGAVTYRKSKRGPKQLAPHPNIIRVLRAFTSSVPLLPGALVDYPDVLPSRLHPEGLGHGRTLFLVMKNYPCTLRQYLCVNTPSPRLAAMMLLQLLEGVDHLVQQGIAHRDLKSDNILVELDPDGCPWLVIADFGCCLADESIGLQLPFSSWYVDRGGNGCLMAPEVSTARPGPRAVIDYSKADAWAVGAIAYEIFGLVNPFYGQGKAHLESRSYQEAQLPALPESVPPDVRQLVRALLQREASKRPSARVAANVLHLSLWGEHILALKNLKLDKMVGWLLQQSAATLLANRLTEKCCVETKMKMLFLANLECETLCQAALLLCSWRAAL
UniProt Q53EQ6: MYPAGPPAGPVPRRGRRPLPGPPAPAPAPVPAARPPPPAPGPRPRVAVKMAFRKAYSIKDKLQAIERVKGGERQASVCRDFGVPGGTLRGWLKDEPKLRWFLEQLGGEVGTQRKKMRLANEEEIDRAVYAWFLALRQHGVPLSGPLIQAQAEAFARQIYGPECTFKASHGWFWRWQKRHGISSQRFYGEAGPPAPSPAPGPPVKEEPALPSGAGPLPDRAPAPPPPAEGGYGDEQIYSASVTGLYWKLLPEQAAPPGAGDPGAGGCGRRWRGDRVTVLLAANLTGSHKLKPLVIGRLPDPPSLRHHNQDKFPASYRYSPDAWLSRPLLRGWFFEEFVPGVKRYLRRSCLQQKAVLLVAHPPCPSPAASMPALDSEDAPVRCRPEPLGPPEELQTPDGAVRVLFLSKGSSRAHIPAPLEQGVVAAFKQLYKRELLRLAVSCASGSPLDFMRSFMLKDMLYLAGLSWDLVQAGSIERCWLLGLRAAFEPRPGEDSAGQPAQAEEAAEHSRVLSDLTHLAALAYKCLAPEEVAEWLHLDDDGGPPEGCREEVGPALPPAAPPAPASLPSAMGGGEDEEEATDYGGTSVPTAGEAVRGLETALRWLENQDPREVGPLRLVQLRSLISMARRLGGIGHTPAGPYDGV
UniProt Q9WVA4: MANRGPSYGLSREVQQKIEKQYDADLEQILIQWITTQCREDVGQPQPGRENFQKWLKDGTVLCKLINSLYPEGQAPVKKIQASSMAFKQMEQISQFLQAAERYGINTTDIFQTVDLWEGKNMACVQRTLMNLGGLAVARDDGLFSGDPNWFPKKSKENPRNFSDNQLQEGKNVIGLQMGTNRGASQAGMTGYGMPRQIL

Tests used:
Test in all cases: proximity labelling
PSMA4-BirA*-FLAG [1] = biological target: PSMA4-BirA*-FLAG (UniProt P25789)
[2] = biological target: PSMA4-miniTurbo-FLAG (HEK293T cell line) (UniProt P25789)
[3] = biological target: T1, PSMA4-miniTurbo with FLAG tag (ProteasomeID mouse) (UniProt Q9R1P0)
T1 sequence: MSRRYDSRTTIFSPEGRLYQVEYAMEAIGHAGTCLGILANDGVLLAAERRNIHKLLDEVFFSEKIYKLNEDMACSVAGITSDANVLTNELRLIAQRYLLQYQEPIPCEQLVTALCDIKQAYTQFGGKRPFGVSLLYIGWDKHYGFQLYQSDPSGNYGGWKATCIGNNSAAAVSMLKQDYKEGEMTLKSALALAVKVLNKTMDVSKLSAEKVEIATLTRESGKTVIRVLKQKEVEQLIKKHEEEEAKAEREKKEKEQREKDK

PSMA4-BirA*-FLAG [4] = biological target: PSMA4-BirA*-FLAG (UniProt P25789); remark: listed apart in the source
[5] = biological target: PSMA4-miniTurbo-FLAG (HEK293T cell line) (UniProt P25789); remark: listed apart in the source
[6] = biological target: T1, PSMA4-miniTurbo with FLAG tag (ProteasomeID mouse); remark: listed apart in the source

Molecule: CCT7 (from UniProt Q99832 1-543)
binding (PSMA4-BirA*-FLAG [1]): binds

Molecule: MYC (from UniProt P01106 1-454)
binding [2]: binds

Molecule: transgelin 2 (TAGLN2), endogenous in HEK293T (from UniProt P37802 1-199)
binding (PSMA4-BirA*-FLAG [1]): binds

B1: immunoglobulin-binding protein 1 (IGBP1), endogenous in HEK293T (protein, UniProt P78318 1-339)
chain: MAAEDELQLPRLPELFETGRQLLDEVEVATEPAGSRIVQEKVFKGLDLLEKAAEMLSQLDLFSRNEDLEEIASTDLKYLLVPAFQGALTMKQVNPSKRLDHLQRAREHFINYLTQCHCYHVAEFELPKTMNNSAENHTANSSMAYPSLVAMASQRQAKIQRYKQKKELEHRLSAMKSAVESGQADDERVREYYLLHLQRWIDISLEEIESIDQEIKILRERDSSREASTSNSSRQERPPVKPFILTRNMAQAKVFGAGYPSLPTMTVSDWYEQHRKYGALPDQGIAKAAPEEFRKAAQQQEEQEEKEEEDDEQTLHRAREWDDWKDTHPRGYGNRQNMG
binding (PSMA4-BirA*-FLAG [4]): binds

B4: immunoglobulin-binding protein 1 (IGBP1), endogenous in mouse organs (protein, UniProt Q61249 1-340)
chain: MAASEDELLLPRLPELFETSKKLLEDVEVATEPTGSRTIQDKVSKGLELLEKAAGMLSQLDLFSRNEDLEEIASTDLKYLMVPALQGALTMKQVNPSKRLDHLQRAREHFVHFLTQCHCYHVAEFQLPQTKTNSAENNTASSSMAYPNLVAMASQRQAKIERYKQKKEVEHRLSALKSAVESGQADDERVREYHLLHLRRWIAVSLEELESIDQEIKILKEKDSPREETACHSSLPEKPPMKPFILTRNKAQAKVFGTGYPSLATMTVSDWYEQHQKYGVLPDRGIAKPASADFQRAAQQQEDQEQKDEESEEKALHRMREWDDWKDTHPRGYGNRQNMG
binding [6]: binds

B5: CCT2 (protein, UniProt P78371 1-535)
chain: MASLSLAPVNIFKAGADEERAETARLTSFIGAIAIGDLVKSTLGPKGMDKILLSSGRDASLMVTNDGATILKNIGVDNPAAKVLVDMSRVQDDEVGDGTTSVTVLAAELLREAESLIAKKIHPQTIIAGWREATKAAREALLSSAVDHGSDEVKFRQDLMNIAGTTLSSKLLTHHKDHFTKLAVEAVLRLKGSGNLEAIHIIKKLGGSLADSYLDEGFLLDKKIGVNQPKRIENAKILIANTGMDTDKIKIFGSRVRVDSTAKVAEIEHAEKEKMKEKVERILKHGINCFINRQLIYNYPEQLFGAAGVMAIEHADFAGVERLALVTGGEIASTFDHPELVKLGSCKLIEEVMIGEDKLIHFSGVALGEACTIVLRGATQQILDEAERSLHDALCVLAQTVKDSRTVYGGGCSEMLMAHAVTQLANRTPGKEAVAMESYAKALRMLPTIIADNAGYDSADLVAQLRAAHSEGNTTAGLDMREGTIGDMAILGITESFQVKRQVLLSAAEAAEVILRVDNIIKAAPRKRVPDHHPC
binding (PSMA4-BirA*-FLAG [4]): binds

Further lines, results first:

binding (PSMA4-BirA*-FLAG [1]): binds
Molecule: CCT5 (from UniProt P48643 1-541)

binding [2]: binds
Molecule: PINK1 (from UniProt Q9BXM7 78-581)

binding [2]: binds
Molecule: Tigger transposable element-derived protein 5 (from UniProt Q53EQ6 1-642)

binding [3]: binds
Molecule: transgelin 2 (TAGLN2), endogenous in mouse organs (from UniProt Q9WVA4 1-199)

binding [5]: binds
B2: BRCA1-associated ATM activator 1 (protein, UniProt Q6PJG6 1-821)
chain: MDPECAQLLPALCAVLVDPRQPVADDTCLEKLLDWFKTVTEGESSVVLLQEHPCLVELLSHVLKVQDLSSGVLSFSLRLAGTFAAQENCFQYLQQGELLPGLFGEPGPLGRATWAVPTVRSGWIQGLRSLAQHPSALRFLADHGAVDTIFSLQGDSSLFVASAASQLLVHVLALSMRGGAEGQPCLPGGDWPACAQKIMDHVEESLCSAATPKVTQALNVLTTTFGRCQSPWTEALWVRLSPRVACLLERDPIPAAHSFVDLLLCVARSPVFSSSDGSLWETVARALSCLGPTHMGPLALGILKLEHCPQALRTQAFQVLLQPLACVLKATVQAPGPPGLLDGTADDATTVDTLLASKSSCAGLLCRTLAHLEELQPLPQRPSPWPQASLLGATVTVLRLCDGSAAPASSVGGHLCGTLAGCVRVQRAALDFLGTLSQGTGPQELVTQALAVLLECLESPGSSPTVLKKAFQATLRWLLSSPKTPGCSDLGPLIPQFLRELFPVLQKRLCHPCWEVRDSALEFLTQLSRHWGGQADFRCALLASEVPQLALQLLQDPESYVRASAVTAMGQLSSQGLHAPTSPEHAEARQSLFLELLHILSVDSEGFPRRAVMQVFTEWLRDGHADAAQDTEQFVATVLQAASRDLDWEVRAQGLELALVFLGQTLGPPRTHCPYAVALPEVAPAQPLTEALRALCHVGLFDFAFCALFDCDRPVAQKSCDLLLFLRDKIASYSSLREARGSPNTASAEATLPRWRAGEQAQPPGDQEPEAVLAMLRSLDLEGLRSTLAESSDHVEKSPQSLLQDMLATGGFLQGDEADCY

binding [5]: binds
B3: armadillo containing protein 6 (protein, UniProt Q6NXE6 1-501)
chain: MSERCCSRYSSGASIGCTPTSTQAKMVSKRIAQETFDAAVRENIEEFAMGPEEAVKEAVEQFESQGVDLSNIVKTAPKVSADGSQEPTHDILQMLSDLQESVASSRPQEVSAYLTRFCDQCKQDKACRFLAAQKGAYPIIFTAWKLATAGDQGLLLQSLNALSVLTDGQPDLLDAQGLQLLVATLTQNADEADLTCSGIRCVRHACLKHEQNRQDLVKAGVLPLLTGAITHHGHHTDVVREACWALRVMTFDDDIRVPFGHAHNHAKMIVQENKGLKVLIEATKAFLDNPGILSELCGTLSRLAIRNEFCQEVVDLGGLSILVSLLADCNDHQMRDQSGVQELVKQVLSTLRAIAGNDDVKDAIVRAGGTESIVAAMTQHLTSPQVCEQSCAALCFLALRKPDNSRIIVEGGGAVAALQAMKAHPQKAGVQKQACMLIRNLVAHGQAFSKPILDLGAEALIMQARSAHRDCEDVAKAALRDLGCHVELRELWTGQRGNLAP
